Experimental data taken from patent US11156615B2 (priority 2015, dated 2021).
Positions count from the first letter of the chain named.

B1: ttGGBP17C.21: affinity-tuning mutant, 17C background, SEQ ID NO: 79 (protein)
chain: MKQLNIGVAIYKFDDTCMTGVRNAMTAEAQGKAKLNMVDSQNSQPTQNDQVDLFITKKMNALAINPVDRTAAGTIIDKAKQANIPVVFFNREPLPEDMKKWDKVYYVGAKAEQSGILQGQIMADYWKAHPEADKNHDGVMQYVMLMGQPGHQDAILRTQYSIQTVKDAGIKVQELAKDYANWDRVTAHDKMAAWLSSFGDKIEAVFANNDDMALGAIEALKSAGYFTGNKYIPVVGVDATAPGIQAIKDGTLLGTVLADAKNQAKATFNIAYELAQGITPTKDNIGYDITDGKYVWIPYKKITKDNISDAEQGGSHHHHHH
modifications: ttGGBP17C.21 (affinity-tuning mutant, 17C background (Table 6) with signal peptide replaced with M and GGSHHHHHH at C-terminus)
B2: ttGGBP17C.23: affinity-tuning mutant, 17C background, SEQ ID NO: 81 (protein)
chain: B1 chain with A258N, A260Q
modifications: ttGGBP17C.23 (affinity-tuning mutant, 17C background (Table 6) with signal peptide replaced with M and GGSHHHHHH at C-terminus)
B3: ttGGBP17C.27: affinity-tuning mutant, 17C background, SEQ ID NO: 85 (protein)
chain: B1 chain with A258N, A260F
modifications: ttGGBP17C.27 (affinity-tuning mutant, 17C background (Table 6) with signal peptide replaced with M and GGSHHHHHH at C-terminus)

What was measured:
[1] = Analysis of emission spectra components: singular value decomposition and Gaussian fits of S1/S2 electronic transitions; conditions: for Gaussians Fraction f(S1) Sat: glucose-saturated
[2] = Glucose-dependent fluorescence emission intensity spectra of conjugates (Nanodrop3300); assay type: biochemical; conditions: Badan conjugate; Nanodrop, room temperature
Text: Semi-synthetic FRSs were engineered by site-specifically attaching thiol-reactive, environmentally sensitive fluorophores that respond to ligand-mediated conformational changes. Identification of FRS candidates that are useful for sensing applications comprises three steps: • 1. Cysteine scan. Mutant glucose-binding proteins containing single cysteines are constructed for site-specific attachment of thiol-reactive fluorophores. […] Candidate positions fall into three classes: endosteric, replacing a residue that contacts the ligand directly; peristeric, located at the rim of the binding site; allosteric (Marvin et al. 1997 Proc Natl Acad Sci USA, 94, 4366-71; Marvin 1998 J Am Chem Soc, 120, 7-11), located outside the binding site at sites that undergo local structural changes in concert with the hinge-bending motion. • 2. Fluorophore screening. Thiol-reactive, environmentally sensitive fluorophores are attached to each cysteine mutant prepared in step 1. • 3. Evaluation of the glucose-mediated change of all the fluorescent conjugates prepared in step 2. Responses to ligand binding in which there is both a change in fluorescence emission intensity and spectral shape was essential for chemometric applications, because such changes enable ratiometric measurements. Changes in spectral shape typically are accompanied by a shift in the wavelength of the emission intensity maxima. Three classes of fluorescent responses are possible: • i. No response. • ii. Monochromatic response (emission intensity increases or decreases without a change in spectral shape) • iii.

[3] = Acrylodan conjugate of ttGGBP.17C mutant
[4] = Badan conjugate of ttGGBP.17C mutant

Molecule	Gaussians Peak S1 [1, 3]	Gaussians Peak S2 [1, 3]	Gaussians Fraction f(S1) Apo [1, 3]	Gaussians Peak S1 [1, 4]	Gaussians Fraction f(S1) Apo [1, 4]	Emission wavelength λ1 (optimal ratiometry wavelength) [2]	Emission wavelength λ2 (optimal ratiometry wavelength) [2]	Gaussians Peak S2 [1, 4]	SVD component fraction C1 [1, 4]	SVD component fraction C2 [1, 4]	Gaussians Fraction f(S1) Sat [1, 4]
B1	526 nm	475 nm	0.33	523 nm	1.00	532 nm	494 nm				
B2	526 nm	474 nm	0.31	532 nm	0.95	527 nm	490 nm	475 nm	0.97	0.03	0.85
B3	523 nm	477 nm	0.38	529 nm	1.00	523 nm	490 nm	487 nm	0.96	0.04	0.82
